Data as given in PubChem BioAssay AID652272 (Drosophila RNAi Screening Center, 2013).

Aim: 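Genes whose knock-down decreases or increases Hedgehog reporter output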 (primary screen)
Cell system: Drosophila clone 8 (Cl8) cells
Reagent: long dsRNA against Drosophila genes
Read-out: 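Plate reader light from a firefly reporter under a ptc promoter fragment that responds to Hedgehog, with Renilla light as transfection reference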
Reading the numbers: firefly Hh reporter signal: higher = more ptc reporter light; Renilla reference signal: higher = more Renilla control light
Hit rule: 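Called a hit if the two-replicate mean z-score lies below -2 or above +3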
Meaning of the calls: active = hit: reporter lowered or raised; inactive = not a hit
In all, the deposit lists about 21,000 reagents; this is an unselected part of those with a known target gene and a result. Over the whole deposit, 503 (2.4%) are marked active. 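Raw plate light values, not normalised; calls rest on replicate z-scores that were not deposited; hits include reporter decreases as well as increases.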 Reagents against one gene are numbered here. Names joined by + are all predicted targets of the reagent. The record does not give: the amount of reagent, the time to read-out.

firefly Hh reporter signal, replicate 1	firefly Hh reporter signal, replicate 2	firefly Hh reporter signal, replicate 3	Renilla reference signal, replicate 1	Renilla reference signal, replicate 2	call	gene	reagent
81549	1.10e5		3634	3063	inactive	p (pink)	1
1.17e5	99495		4226	3520	inactive	140up (upstream of RpII140)	1
5.98e5	3.79e5	81031	3568	8609	inactive	CG32163	1
81548	57063		2471	5030	inactive	Mtmr6 (Myotubularin related protein 6)	1
97528	68444		2098	1620	inactive	yellow-f	1
76118	58656		1089	5005	inactive	CG12782	1
93516	54453		3572	2180	inactive	Eglp2 (Entomoglyceroporin 2)	1
1.12e5	78192		4275	2230	inactive	egg (eggless)	1
91265	59964		2698	4288	inactive	CG6280	1
43810	33993	40838	3515	3397	inactive	Grip163	1
1.03e5	2.41e5		2374	10896	inactive	CG33225	1
52020	55158		2819	1449	inactive	CG13315	1
1.12e5	88242		4549	3109	inactive	botv	1
1.14e5	2.95e5		3155	11404	inactive	fus (fusilli)	1
1.10e5	79940		5460	3384	inactive	fus (fusilli)	2
62449	37241		1859	1753	inactive	CG1542	1
79288	35907		3268	1657	inactive	chk (chaski)	1
94054	2.12e5		2676	9777	inactive	CG14414	1
96194	50961		1994	1088	inactive	Obp47a (Odorant-binding protein 47a)	1
85840	76666		3696	2699	inactive	Tom (Twin of m4)	1
62714			2113	2421	inactive	brm (brahma)	1
65380	37831		2112	3475	inactive	CG8910	1
51748	2.71e5		1349	10515	inactive	CG4661	1
87408	86581		4037	3528	inactive	Dph1 (Diphthamide biosynthesis 1)	1
89888	33810		3104	3816	inactive	CG9426	1
80697	44443		2308	1667	inactive	Rnb (R and B)	1
76154	2.20e5		2756	8981	inactive	CG4766	1
6.37e5	89785		42493	2619	inactive	Nil (Nilkantha)	1
92237	59936		1942	1129	active	pzg (putzig)	1
47844	55416	45970	5543	2733	inactive	rt (rotated abdomen)	1
67210	54818		1604	5419	inactive	CG17996 + Tsen2	1
98326	57048		2284	5351	inactive	CG14538 (retired record)	1
42762	24211		1340	2717	inactive	geminin	1
89255	69712		3445	2404	inactive	CG9269	1
71221			5560	2588	inactive	CG18265	1
94912	66769		4074	2807	inactive	CG7080	1
92134	3.90e5		3149	13241	inactive	Sec16 (Secretory 16)	1
1.65e5	3.98e5		5844	14122	inactive	Sec16 (Secretory 16)	2
72149	61241		1715	5915	inactive	CG34345	1
41656	63965	86842	5289	6905	inactive	Atg12 (Autophagy-related 12)	1
56195	64487	50369	5737	3644	inactive	CG3552	1
1.12e5	68617		2976	5332	inactive	Cyp6a23 (Cytochrome P450 6a23)	1
62146	96289		1272	3980	inactive	tbc (trabuco)	1
1.05e5	62217		2978	5392	inactive	RpL37-2 (Ribosomal protein L37-2)	1
5.72e5	1.96e5		30197	7873	inactive	FASN2 (Fatty acid synthase 2)	1
89210	76553		3825	3068	inactive	FASN2 (Fatty acid synthase 2)	2
1.19e5	3.18e5		3492	13659	inactive	CG43111	1
1.44e5	1.63e5		3661	3760	inactive	MKP-4 (MAPK Phosphatase 4)	1
69664	1.56e5		2006	4121	inactive	Dtd (D-aminoacyl-tRNA deacylase)	1
94859	73896		3597	3121	inactive	CG13458	1
1.29e5	56722		3360	4513	inactive	CG5968	1
1.89e5	1.51e5		7072	5435	inactive	CG17230	1
72440	1.92e5		2656	10864	inactive	Sec61gamma (Sec61 gamma subunit)	1
66395	2.10e5		993	7997	inactive	CG15209	1
67796	90925		3080	3722	inactive	CG9886	1
93360			5771	2779	inactive	CG32187	1
55640	20722		1846	2868	inactive	Cf2 (Chorion factor 2)	1
79912	54617		2435	1814	inactive	dom (domino)	1
49136	42816		1991	4787	inactive	dom (domino)	2
1.86e5	75608		4962	7249	inactive	Nepl7 (Neprilysin-like 7)	1
5.22e5	2.31e5		31232	10119	inactive	CG33125	1
92368	1.42e5		4480	4762	inactive	GstS1 (Glutathione S transferase S1)	1
81320	39851		2147	3666	inactive	CG12911	1
1.04e5	63576		2567	5497	inactive	Lcp3 (Larval cuticle protein 3)	1
1.35e5	1.01e5		5684	3920	inactive	CG3829	1
1.87e5	3.00e5		5204	12502	inactive	Kank	1
1.66e5	68476		5207	2113	inactive	Kank	2
68464	32178		1735	3593	inactive	Inos (myo-inositol-1-phosphate synthase)	1
1.61e5	4.37e5		3145	7708	active	Upf2	1
28041	38000	24258	3746	2263	inactive	I-2 (Inhibitor-2)	1
96379	1.01e5		3749	3904	inactive	CG14740	1
81489	54507		2058	4640	inactive	Nhe2 (Na[+]/H[+] hydrogen exchanger 2)	1
90519	50928		2450	4019	inactive	Nhe2 (Na[+]/H[+] hydrogen exchanger 2)	2

9 of these entries, set out differently:
{"gene":"dom (domino)","reagent":2,"firefly Hh reporter signal, replicate 1":49136,"firefly Hh reporter signal, replicate 2":42816,"Renilla reference signal, replicate 1":1991,"Renilla reference signal, replicate 2":4787,"call":"inactive"}
{"gene":"Nepl7 (Neprilysin-like 7)","reagent":1,"firefly Hh reporter signal, replicate 1":1.86e5,"firefly Hh reporter signal, replicate 2":75608,"Renilla reference signal, replicate 1":4962,"Renilla reference signal, replicate 2":7249,"call":"inactive"}
{"gene":"CG33125","reagent":1,"firefly Hh reporter signal, replicate 1":5.22e5,"firefly Hh reporter signal, replicate 2":2.31e5,"Renilla reference signal, replicate 1":31232,"Renilla reference signal, replicate 2":10119,"call":"inactive"}
{"gene":"GstS1 (Glutathione S transferase S1)","reagent":1,"firefly Hh reporter signal, replicate 1":92368,"firefly Hh reporter signal, replicate 2":1.42e5,"Renilla reference signal, replicate 1":4480,"Renilla reference signal, replicate 2":4762,"call":"inactive"}
{"gene":"CG12911","reagent":1,"firefly Hh reporter signal, replicate 1":81320,"firefly Hh reporter signal, replicate 2":39851,"Renilla reference signal, replicate 1":2147,"Renilla reference signal, replicate 2":3666,"call":"inactive"}
{"gene":"Lcp3 (Larval cuticle protein 3)","reagent":1,"firefly Hh reporter signal, replicate 1":1.04e5,"firefly Hh reporter signal, replicate 2":63576,"Renilla reference signal, replicate 1":2567,"Renilla reference signal, replicate 2":5497,"call":"inactive"}
{"gene":"CG3829","reagent":1,"firefly Hh reporter signal, replicate 1":1.35e5,"firefly Hh reporter signal, replicate 2":1.01e5,"Renilla reference signal, replicate 1":5684,"Renilla reference signal, replicate 2":3920,"call":"inactive"}
{"gene":"Kank","reagent":1,"firefly Hh reporter signal, replicate 1":1.87e5,"firefly Hh reporter signal, replicate 2":3.00e5,"Renilla reference signal, replicate 1":5204,"Renilla reference signal, replicate 2":12502,"call":"inactive"}
{"gene":"Kank","reagent":2,"firefly Hh reporter signal, replicate 1":1.66e5,"firefly Hh reporter signal, replicate 2":68476,"Renilla reference signal, replicate 1":5207,"Renilla reference signal, replicate 2":2113,"call":"inactive"}
